Source: patent publication US8648090B2, “Indole alkaloid derivatives having opioid receptor agonistic effect, and therapeutic compositions and methods relating to same” (National University Corporation Chiba University, priority 2007, dated 2014)

Tested on: guinea pig ileum
Assay: Twitch contraction induced by electrical stimulation in guinea pig isolated ileum (Magnus assay)
Details: Cavia porcellus, read-out: pD2 value (−log M) (converted)

`CN1CC[C@]23c4c5ccc(O)c4O[C@H]2[C@@H](O)C=C[C@H]3[C@H]1C5` [Morphine, reference compound] gave an EC50 of 70.8 nM.
